Test [1] deals with T1, Myc-USP37 (ubiquitin-specific protease 37) (human) (UniProt Q86T82).
T1 sequence: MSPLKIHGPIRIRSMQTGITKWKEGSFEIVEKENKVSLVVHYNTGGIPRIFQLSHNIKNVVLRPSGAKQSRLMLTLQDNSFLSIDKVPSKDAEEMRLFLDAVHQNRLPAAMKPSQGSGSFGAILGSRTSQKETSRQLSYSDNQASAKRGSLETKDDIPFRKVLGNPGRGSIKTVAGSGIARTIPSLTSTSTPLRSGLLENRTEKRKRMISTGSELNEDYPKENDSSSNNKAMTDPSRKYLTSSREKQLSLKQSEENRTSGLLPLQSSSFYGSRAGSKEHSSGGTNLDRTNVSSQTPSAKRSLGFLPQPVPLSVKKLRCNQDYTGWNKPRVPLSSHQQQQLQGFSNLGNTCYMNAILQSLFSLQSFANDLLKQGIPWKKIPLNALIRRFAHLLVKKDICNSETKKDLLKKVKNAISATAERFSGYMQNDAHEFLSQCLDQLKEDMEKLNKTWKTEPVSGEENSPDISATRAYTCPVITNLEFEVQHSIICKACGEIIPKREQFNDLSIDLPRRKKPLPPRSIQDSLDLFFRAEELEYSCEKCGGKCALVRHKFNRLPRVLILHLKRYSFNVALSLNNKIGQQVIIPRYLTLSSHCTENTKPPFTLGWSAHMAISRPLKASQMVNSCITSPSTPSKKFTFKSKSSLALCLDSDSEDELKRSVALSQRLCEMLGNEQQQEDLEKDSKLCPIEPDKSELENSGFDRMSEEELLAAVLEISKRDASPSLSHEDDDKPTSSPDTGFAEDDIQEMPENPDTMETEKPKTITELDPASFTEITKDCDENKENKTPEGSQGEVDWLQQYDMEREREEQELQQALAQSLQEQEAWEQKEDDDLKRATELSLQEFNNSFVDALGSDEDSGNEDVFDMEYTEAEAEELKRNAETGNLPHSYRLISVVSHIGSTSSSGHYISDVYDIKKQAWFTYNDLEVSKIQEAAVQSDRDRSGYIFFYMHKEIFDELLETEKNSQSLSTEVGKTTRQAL
The test is described as follows: co-IP; 293T cells transfected with Myc-Usp37 and/or Flag-14-3-3γ; reciprocal co-IP, anti-Myc IP and anti-Flag blot; lysates with antibodies at 4°C overnight, protein-A/G beads.

The target in test [2] is T1, Myc-USP37 (ubiquitin-specific protease 37) (human). The test is described as follows: co-IP; HA-14-3-3 isoforms transfected into 293T cells together with Myc-USP37.
The target in test [3] is T2, endogenous 14-3-3γ (human (endogenous in 293T and A549)) (UniProt P61981).
T2 sequence: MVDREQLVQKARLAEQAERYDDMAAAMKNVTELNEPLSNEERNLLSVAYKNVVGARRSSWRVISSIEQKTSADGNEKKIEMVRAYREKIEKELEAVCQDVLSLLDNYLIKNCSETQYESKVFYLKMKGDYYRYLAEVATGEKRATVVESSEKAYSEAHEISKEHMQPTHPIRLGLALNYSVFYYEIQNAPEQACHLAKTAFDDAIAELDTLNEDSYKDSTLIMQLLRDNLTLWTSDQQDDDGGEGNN
As to the kind of experiment: co-IP; lysates of 293T cells overexpressing Myc-USP37; IP with an anti-14-3-3γ antibody (endogenous 14-3-3γ).

Another test concerns the target T3, GST-14-3-3γ (murine) (UniProt P61982).
T3 sequence: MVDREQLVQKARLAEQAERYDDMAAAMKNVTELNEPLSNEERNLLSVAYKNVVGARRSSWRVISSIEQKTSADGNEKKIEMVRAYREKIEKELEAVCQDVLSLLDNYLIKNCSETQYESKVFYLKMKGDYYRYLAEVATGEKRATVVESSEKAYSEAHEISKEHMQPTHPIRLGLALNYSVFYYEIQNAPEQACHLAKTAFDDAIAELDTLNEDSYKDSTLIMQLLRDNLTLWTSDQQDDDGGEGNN
The test is described as follows: pull-down; GST-14-3-3γ on glutathione-Sepharose beads incubated with lysates of 293T cells overexpressing Myc-USP37; immunoblot; only the target purified. (In general: A western blot detects proteins with antibodies after separation by electrophoresis.)

These are yes or no findings as the source states them, for the method shown. Binding seen in cells or lysates may run through a third protein. Some binding calls cover weakened binding; strength is not graded here. Sequences can lack the tags named with a protein.

B1: Flag-14-3-3γ (protein, UniProt P61982 1-247)
chain: MVDREQLVQKARLAEQAERYDDMAAAMKNVTELNEPLSNEERNLLSVAYKNVVGARRSSWRVISSIEQKTSADGNEKKIEMVRAYREKIEKELEAVCQDVLSLLDNYLIKNCSETQYESKVFYLKMKGDYYRYLAEVATGEKRATVVESSEKAYSEAHEISKEHMQPTHPIRLGLALNYSVFYYEIQNAPEQACHLAKTAFDDAIAELDTLNEDSYKDSTLIMQLLRDNLTLWTSDQQDDDGGEGNN
Take B1: in test [1], the binding entry was “binds”.

B2: HA-14-3-3γ (protein, UniProt P61982 1-247)
chain: MVDREQLVQKARLAEQAERYDDMAAAMKNVTELNEPLSNEERNLLSVAYKNVVGARRSSWRVISSIEQKTSADGNEKKIEMVRAYREKIEKELEAVCQDVLSLLDNYLIKNCSETQYESKVFYLKMKGDYYRYLAEVATGEKRATVVESSEKAYSEAHEISKEHMQPTHPIRLGLALNYSVFYYEIQNAPEQACHLAKTAFDDAIAELDTLNEDSYKDSTLIMQLLRDNLTLWTSDQQDDDGGEGNN
Consider B2, for which the binding entry in test [2] is “binds”.

B3: Myc-USP37 (ubiquitin-specific protease 37) (enzyme, UniProt Q86T82-1 1-979)
chain: MSPLKIHGPIRIRSMQTGITKWKEGSFEIVEKENKVSLVVHYNTGGIPRIFQLSHNIKNVVLRPSGAKQSRLMLTLQDNSFLSIDKVPSKDAEEMRLFLDAVHQNRLPAAMKPSQGSGSFGAILGSRTSQKETSRQLSYSDNQASAKRGSLETKDDIPFRKVLGNPGRGSIKTVAGSGIARTIPSLTSTSTPLRSGLLENRTEKRKRMISTGSELNEDYPKENDSSSNNKAMTDPSRKYLTSSREKQLSLKQSEENRTSGLLPLQSSSFYGSRAGSKEHSSGGTNLDRTNVSSQTPSAKRSLGFLPQPVPLSVKKLRCNQDYTGWNKPRVPLSSHQQQQLQGFSNLGNTCYMNAILQSLFSLQSFANDLLKQGIPWKKIPLNALIRRFAHLLVKKDICNSETKKDLLKKVKNAISATAERFSGYMQNDAHEFLSQCLDQLKEDMEKLNKTWKTEPVSGEENSPDISATRAYTCPVITNLEFEVQHSIICKACGEIIPKREQFNDLSIDLPRRKKPLPPRSIQDSLDLFFRAEELEYSCEKCGGKCALVRHKFNRLPRVLILHLKRYSFNVALSLNNKIGQQVIIPRYLTLSSHCTENTKPPFTLGWSAHMAISRPLKASQMVNSCITSPSTPSKKFTFKSKSSLALCLDSDSEDELKRSVALSQRLCEMLGNEQQQEDLEKDSKLCPIEPDKSELENSGFDRMSEEELLAAVLEISKRDASPSLSHEDDDKPTSSPDTGFAEDDIQEMPENPDTMETEKPKTITELDPASFTEITKDCDENKENKTPEGSQGEVDWLQQYDMEREREEQELQQALAQSLQEQEAWEQKEDDDLKRATELSLQEFNNSFVDALGSDEDSGNEDVFDMEYTEAEAEELKRNAETGNLPHSYRLISVVSHIGSTSSSGHYISDVYDIKKQAWFTYNDLEVSKIQEAAVQSDRDRSGYIFFYMHKEIFDELLETEKNSQSLSTEVGKTTRQAL
Take B3: the binding entry (in test [3]; with GST-14-3-3γ (murine)) was “binds” each time.
